Values joined by “and” are separate entries in the source; they are usually repeats but may differ in a detail not shown here. Identical values can stand only once.
Test system: A549 tumor xenografts
Experiment: titration of 14C-carboplatin radioactive dose, AMS signal to noise in tumor DNA
Assay type: in vivo, mice
Conditions: for Signal to Noise, Sample #1/#2: listed as 14C-carboplatin
[1] = 5,000 dpm/gm of body weight, total carboplatin at 2 mg/m^2
[2] = 10,000 dpm/gm of body weight, total carboplatin at 2 mg/m^2
[3] = 10,000 dpm/gm of body weight, total carboplatin at 200 mg/m^2

`N.N.O=C([O-])C1(C(=O)[O-])CCC1.[Pt+2]` [carboplatin] was tested, and the “Signal to Noise, Mean” value [1] was 0.19, the “Signal to Noise, Sample #1/#2” value [1] was 0.24 and 0.14 and the “Signal to Noise, Mean” value (5,000 dpm/gm of body weight, total carboplatin at 200 mg/m^2) was 108. The “Signal to Noise, Mean” value [2] was 1.23, the “Signal to Noise, Sample #1/#2” value [2] was 1.27 and 1.19 and the “Signal to Noise, Mean” value [3] was 40. The “Signal to Noise, Sample #1/#2” value [3] was 37.6 and 42.2, the “Signal to Noise, Mean” value (50,000 dpm/gm of body weight, total carboplatin at 2 mg/m^2) was 3.30 and the “Signal to Noise, Sample #1/#2” value (50,000 dpm/gm of body weight, total carboplatin at 2 mg/m^2, tumor resected 4 hours) was 3.37 and 3.22. The “Signal to Noise, Mean” value (50,000 dpm/gm of body weight, total carboplatin at 200 mg/m^2) was 589.

From patent US20200010910A1, “Cytotoxic Chemotherapy-Based Predictive Assays for Acute Myeloid Leukemia” (The Regents of The University of California, priority 2017, published 2020)
